Results are given in words; binding and its absence hold for the method and conditions named. Binding calls can cover weak binding; strength is not graded here. For part of these data: In cells and extracts the contact can be indirect. For part of these data: Where a sequence is shown, tags or fusion partners need not be part of it.
Target: cYFP:UspA fusion for BiFC (Aspergillus nidulans)
Assay: split reporter; BiFC with halves of YFP in A. nidulans hyphae during vegetative development, 20 h in light at 37 °C; nuclei marked by RFP-H2A

Binder	binding
nYFP:CsnB fusion for BiFC (protein, UniProt Q5B3U7 1-506) MSDDDDFMHDSADEEYDFEYEDADDDETGDIGIENKYYNAKQIKVDNPEEAIDEFLGVPALEQDKGDWGFKGLKQAIKLEFKLGRYSDAVEHYRELLTYVKSAVTRNYSEKSINNMLDYIEKGSDDEKAYQCMEEFYSLTLNSFQNTNNERLWLKTNIKLARLWLERREYGQLSKKVRELHRACQREDGSDDPSKGTYLLELYALEIQMYAETKNNKRLKALYQRALRVRSAVPHPKIMGIIRECGGKMHMSEENWEEAQSDFFESFRNYDEAGSMQRIQVLKYLVLTTMLMKSDINPFHSQETKPYKTDPRISAMTDLVDAFQRDDIHAYEEVLSKNPDVLADPFIAENIDEVSRNMRTKAILKLIAPYTRFTLSFISKHIKISVTEAQDILSFLILDKKLNAKIDQESGTVVVESASDVERLRSVEEWNESLRTLWQVTLKDGDGFKNDDVSQPTGIGMRGPLLYQSGLDDDTAGLLRSSGHRFRRGGKGSKAGGGLGMKTGLF	binds
nYFP:CsnF fusion for BiFC (protein, UniProt Q5BB47 1-386) MPDEAISILSQKSSDSGLHIQLHPLALLTISDHITRHAARSQQGPIVGGLLGQHNGREITVEHGFECVVEIGPNGEAQLPNEWFVDRVKQFKDVHKVPALDLIGWWSTAPPSGPTTAHLPIHRQILQNHNESAVFLTFHPSQVQGASQSQGKLPLTIYESVYEGESVTENGKAMQVDGEEQLLNIRFRELPYTIETGEAEMIGIDTVARTARNAAATETSTVAAPSSQIDSDKQEQQPANTDLLSPEEEELIASLNTRLNAIRTLESRISLIKSYLSSISPSSEEGQKDSATKPDHTILRDINSLLSNLSLLTPHEQSAFSAETLAQNNDVSLVALLGQLSQSVNGMREVGKRTAIVNSVRRNRKQLGAQSRYEDDILGRDGVALG	binds

Target: UspA (ubiquitin-specific protease A), yeast two-hybrid bait (Aspergillus nidulans)
Assay: two-hybrid; UspA as bait (pEG202), single CSN subunits as prey (pJG4-5) in S. cerevisiae EGY48; LEU2 reporter, growth on galactose/raffinose medium lacking leucine, three to five days at 30 °C

Binder	binding
CsnA, COP9 signalosome subunit, yeast two-hybrid prey (protein, UniProt Q5BD89 1-498) MEPMLPEAGEAALLSSYAPQASGSMGVDPDPITGLVSTSAAPLVRVEEAPKFELESYIANYTGRTRFNRLYLIGTCSSYLAVDALKAAIAEAKSGKDVARYLRAVQALADVAPNEPEATIDSDWVERSQKVVKAETDRLEHELRGYKNNLIKESIRMGNEELGQHYHRIGDLTSAFKAYSRMRDFCTTPSHIASMLFKIINVAIERGDWLNVQSNVHRLRSQGGKPEEQAKHQPKISAAMGLSQLHSGSYLEAANSFIATDPSLGDTFNEVLTSNDVAVYGGLCALASMDRNELQRRVLDNSSFRNFLELEPHIRRAISFFCNSKFRPCLEILEAYRADYLLDIHLQRHVQVLYNRIRTKSIQQYLIPFNRVSLESMAKIFVLGNPTSQSSQSDSKSAFVQELISLIQDGTLDARIDLEKHVLVSTQGDKRIEVQEAVLDSLDNYVREAHLRLLRSNIIRAGLEVRPLGEDRRTKLEERGKKGHSAIGNLLRATGMKQ	binds
CsnB, COP9 signalosome subunit, yeast two-hybrid prey (protein, UniProt Q5B3U7 1-506) MSDDDDFMHDSADEEYDFEYEDADDDETGDIGIENKYYNAKQIKVDNPEEAIDEFLGVPALEQDKGDWGFKGLKQAIKLEFKLGRYSDAVEHYRELLTYVKSAVTRNYSEKSINNMLDYIEKGSDDEKAYQCMEEFYSLTLNSFQNTNNERLWLKTNIKLARLWLERREYGQLSKKVRELHRACQREDGSDDPSKGTYLLELYALEIQMYAETKNNKRLKALYQRALRVRSAVPHPKIMGIIRECGGKMHMSEENWEEAQSDFFESFRNYDEAGSMQRIQVLKYLVLTTMLMKSDINPFHSQETKPYKTDPRISAMTDLVDAFQRDDIHAYEEVLSKNPDVLADPFIAENIDEVSRNMRTKAILKLIAPYTRFTLSFISKHIKISVTEAQDILSFLILDKKLNAKIDQESGTVVVESASDVERLRSVEEWNESLRTLWQVTLKDGDGFKNDDVSQPTGIGMRGPLLYQSGLDDDTAGLLRSSGHRFRRGGKGSKAGGGLGMKTGLF	binds
CsnD, COP9 signalosome subunit, yeast two-hybrid prey (protein, UniProt Q9C467 1-408) MPSQKIISALAEIESSASPQNKLQLYNDLLSETVSASPEPQLADDLIYYLDSVLSEDLSIVAARPILDSFIYTLRKLSSETQIKVAQHAVNLLQSRSASVEEQDAQIREILADAYEAEEEYIAAARALQGIHIDSSQRLVSDSAKVKLWIRIVRLYLEEDDTTSAEAFLNRIKNLPSKIEDHELKLHFRLSQARIQDARRRFLDASQEYFAVSLAAGVDESDRLQALAAAIRCAVLAPAGPQRSRTLATLYKDDRATSVEEFGILEKMFLDRLLTPEEVSAFAQRLAPHQLAQTADGTTVLDKAVVEHNLVAASKLYENIKTDALGAILGLQASGDLTAGEKAEAYAARMVEQGRLSGSIDQIDGIIYFESNTTATGRHIRQWDAGVQGLSEGVERVATNIAEGHLVR	binds
CsnE, catalytically active COP9 signalosome subunit, yeast two-hybrid prey (protein, UniProt Q5BBF1 1-335) MQAAQLSWELENAVTLIDPQRDSLYRYDEETHKYLSDTRPWTKDPHYFKSVRISAVALLKMVMHARSGGSLEVMGLMQGYILPNTFVVTDAFRLPVEGTETRVNAQDEANEYMVSYLQSCREAGRMENAVGWYHSHPGYGCWLSGIDVSTQDMQQMSGPFVAVVIDPERTISAGKVDIGAFRTFPKDYTPPKEEQEEDEYQTVPLNKAEDFGAHASHYYSLEVSLFKSALDTEILSLLWNKYWVATLSQSPLFTTRDYGSKQMLDLSQKTRRVARGIESNPPRGGAPTQVRDQQLERVVKDGQRIVSEEVKGLLAAEVKMQLFQGIGGKQTVEST	binds
CsnF, COP9 signalosome subunit, yeast two-hybrid prey (protein, UniProt Q5BB47 1-386) MPDEAISILSQKSSDSGLHIQLHPLALLTISDHITRHAARSQQGPIVGGLLGQHNGREITVEHGFECVVEIGPNGEAQLPNEWFVDRVKQFKDVHKVPALDLIGWWSTAPPSGPTTAHLPIHRQILQNHNESAVFLTFHPSQVQGASQSQGKLPLTIYESVYEGESVTENGKAMQVDGEEQLLNIRFRELPYTIETGEAEMIGIDTVARTARNAAATETSTVAAPSSQIDSDKQEQQPANTDLLSPEEEELIASLNTRLNAIRTLESRISLIKSYLSSISPSSEEGQKDSATKPDHTILRDINSLLSNLSLLTPHEQSAFSAETLAQNNDVSLVALLGQLSQSVNGMREVGKRTAIVNSVRRNRKQLGAQSRYEDDILGRDGVALG	binds
CsnC, COP9 signalosome subunit, yeast two-hybrid prey (protein, UniProt Q5B0Y2 1-496) MSDFLAYLTSAPSRPHGSANITDKCYDHQLRDLIAYLKQPGVAPSTADINGYLEAISPAVHSLSYLYLLRIRIQQLQEKTAVGVPNDLQPGGTLWNQTVKFLRSFDPIQIRYVGHEWRELVDSVANAALSVSKPILAVKMIRDALERLNTAGVFTSLHLMLVKLALLSSSYTYVLPVLDKLLCHFPSDTQNAHAGILLCSEHEPSTVFFTDSSGFSANLTYRDHLQFYMYSGMVYMALKKWDQASHCLGIVISAPTANSVSKIMVEAYKKWVLANLLGHGKLFSVPNLVAPHVTRVYQSLSKPYISLAEAFEKRDFQRLRTEISLGQTIWRADKNSGLVYQVFEAYDKFLIIKLGKTFSALTMPDVLQRASSCSKGSRDIEEFVVSLVMTKELRAKLSHSPGNETTTMLRFPLSSQSHALREEHIRFRLIQKEAALNTISRAITQTKITLETSHENLQVIAKNQKLAGSSERSGVVGSTEADGGGDLDEDLMGDGR	no binding
CsnG, COP9 signalosome subunit, yeast two-hybrid prey (protein, UniProt Q00648 1-327) MDQVHHRALDALQSFIALTDSSSATSPRYIASIITNATSSPHTYVFAELLERPAVQALRSPDTPAEFQSYLTLLEIFAWGTWQDYQQTPNLPPLSEEQARKLRLLTLLSLASTIKPLTYEALMTSLSLSAPSELESLVTTAIYSSLITGRLSPATNPPTVNVTSVAPLRDVKPSSLPTMISTLTAWEARCGSVISDIETEIAKIRADSAQRRQKEHARAVAIEKTLEKWNAEGGEQLQGGNPGQGQGQGQGGLGKNAGWKPRDLSTAMFERGFFGGGSNKREFDDDGYFDGGSSDFDQHGSGMDIDEGAGARASGARHSKRFLGKKS	no binding

Reference: PMC6627422
